Laboratory results published in US10058570B2 (priority 2007, dated 2018).
For at least one compound, name, drawing or mass did not settle the structure.

Test system: LPS-induced neutrophilia in lung tissues
Format: in vivo, mouse
Conditions: 1 mg/kg PO, versus vehicle control treated with LPS

C[C@@H]1C[C@H]2[C@@H]3CCC4=CC(=O)C=C[C@]4(C)[C@@]3(F)[C@@H](O)C[C@]2(C)[C@@]1(O)C(=O)CO [Dexamethasone, reference compound]
significant protection: monocyte count in lavage fluid | neutrophil (differential) count in lavage fluid | white blood cell (total) count in lavage fluid
